Source: paper doi:10.1101/2025.05.27.654799
Results are given in words; binding and its absence hold for the method and conditions named. In cells and extracts the contact can be indirect. Some binding calls cover weakened binding; strength is not graded here.

Chains of the proteins cited; added tags and fusions are not shown. Lines headed by an entry give the natural chain unless they say otherwise; changes in a name come on top. A line that says so, or that is headed by a name, gives the form on record, which may keep a tag or linker.
FGFR1 N546K-BirA*-Flag (P11362, form named): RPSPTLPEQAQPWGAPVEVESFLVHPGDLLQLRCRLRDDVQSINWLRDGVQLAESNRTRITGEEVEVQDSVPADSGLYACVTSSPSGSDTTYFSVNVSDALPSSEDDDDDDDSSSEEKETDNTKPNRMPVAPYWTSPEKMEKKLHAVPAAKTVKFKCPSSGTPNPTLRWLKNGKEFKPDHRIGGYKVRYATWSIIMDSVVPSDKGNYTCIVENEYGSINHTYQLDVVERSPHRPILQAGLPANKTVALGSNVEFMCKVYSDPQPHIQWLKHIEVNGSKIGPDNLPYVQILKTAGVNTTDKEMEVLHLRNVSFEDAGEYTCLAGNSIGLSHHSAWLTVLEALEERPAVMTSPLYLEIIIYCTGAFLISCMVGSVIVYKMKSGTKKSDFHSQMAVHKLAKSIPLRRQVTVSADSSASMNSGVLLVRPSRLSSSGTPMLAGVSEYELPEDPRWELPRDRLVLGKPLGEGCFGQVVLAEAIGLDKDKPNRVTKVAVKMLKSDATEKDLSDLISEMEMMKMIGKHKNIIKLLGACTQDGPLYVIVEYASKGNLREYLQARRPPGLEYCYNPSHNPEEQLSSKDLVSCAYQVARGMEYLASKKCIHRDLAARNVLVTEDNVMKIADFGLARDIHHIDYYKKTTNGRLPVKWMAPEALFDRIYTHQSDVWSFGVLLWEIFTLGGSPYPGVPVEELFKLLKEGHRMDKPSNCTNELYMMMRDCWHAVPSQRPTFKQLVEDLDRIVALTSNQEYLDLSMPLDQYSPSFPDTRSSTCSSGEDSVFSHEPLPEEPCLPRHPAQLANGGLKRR
FGFR1 N546K/R661P-BirA*-Flag (P11362, form named): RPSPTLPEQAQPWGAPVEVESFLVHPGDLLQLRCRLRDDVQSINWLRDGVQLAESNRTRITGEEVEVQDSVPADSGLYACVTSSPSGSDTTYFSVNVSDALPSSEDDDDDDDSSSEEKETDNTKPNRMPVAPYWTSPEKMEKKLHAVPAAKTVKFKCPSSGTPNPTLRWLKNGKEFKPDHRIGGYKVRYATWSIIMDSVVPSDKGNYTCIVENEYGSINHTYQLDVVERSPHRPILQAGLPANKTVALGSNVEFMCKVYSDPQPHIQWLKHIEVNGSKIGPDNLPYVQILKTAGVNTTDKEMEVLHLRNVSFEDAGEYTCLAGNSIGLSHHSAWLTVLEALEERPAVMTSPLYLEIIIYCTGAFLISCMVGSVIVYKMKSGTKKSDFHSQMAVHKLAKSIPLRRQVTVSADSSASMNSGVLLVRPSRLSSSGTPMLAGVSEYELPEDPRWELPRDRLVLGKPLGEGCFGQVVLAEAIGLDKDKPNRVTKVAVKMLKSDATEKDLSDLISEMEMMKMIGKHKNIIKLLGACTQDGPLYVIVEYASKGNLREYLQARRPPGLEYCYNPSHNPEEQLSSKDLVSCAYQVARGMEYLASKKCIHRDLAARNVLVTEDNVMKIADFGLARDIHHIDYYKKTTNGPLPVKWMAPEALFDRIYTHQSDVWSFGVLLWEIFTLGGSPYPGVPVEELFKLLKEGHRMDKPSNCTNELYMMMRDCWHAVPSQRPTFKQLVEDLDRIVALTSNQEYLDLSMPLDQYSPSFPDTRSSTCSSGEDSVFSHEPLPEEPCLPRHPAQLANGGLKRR

What was measured:
[1] = biological target: FGFR1 N546K-BirA*-Flag (human) (UniProt P11362); assay: co-IP
[2] = biological target: FGFR1 N546K/R661P-BirA*-Flag (human) (UniProt P11362); assay: co-IP

binding [1]: binds | binding [2]: binds
B1: phospholipase C gamma 1 (PLCγ/PLCG1) (enzyme, UniProt P19174 1-1290)
chain: MAGAASPCANGCGPGAPSDAEVLHLCRSLEVGTVMTLFYSKKSQRPERKTFQVKLETRQITWSRGADKIEGAIDIREIKEIRPGKTSRDFDRYQEDPAFRPDQSHCFVILYGMEFRLKTLSLQATSEDEVNMWIKGLTWLMEDTLQAPTPLQIERWLRKQFYSVDRNREDRISAKDLKNMLSQVNYRVPNMRFLRERLTDLEQRSGDITYGQFAQLYRSLMYSAQKTMDLPFLEASTLRAGERPELCRVSLPEFQQFLLDYQGELWAVDRLQVQEFMLSFLRDPLREIEEPYFFLDEFVTFLFSKENSVWNSQLDAVCPDTMNNPLSHYWISSSHNTYLTGDQFSSESSLEAYARCLRMGCRCIELDCWDGPDGMPVIYHGHTLTTKIKFSDVLHTIKEHAFVASEYPVILSIEDHCSIAQQRNMAQYFKKVLGDTLLTKPVEISADGLPSPNQLKRKILIKHKKLAEGSAYEEVPTSMMYSENDISNSIKNGILYLEDPVNHEWYPHYFVLTSSKIYYSEETSSDQGNEDEEEPKEVSSSTELHSNEKWFHGKLGAGRDGRHIAERLLTEYCIETGAPDGSFLVRESETFVGDYTLSFWRNGKVQHCRIHSRQDAGTPKFFLTDNLVFDSLYDLITHYQQVPLRCNEFEMRLSEPVPQTNAHESKEWYHASLTRAQAEHMLMRVPRDGAFLVRKRNEPNSYAISFRAEGKIKHCRVQQEGQTVMLGNSEFDSLVDLISYYEKHPLYRKMKLRYPINEEALEKIGTAEPDYGALYEGRNPGFYVEANPMPTFKCAVKALFDYKAQREDELTFIKSAIIQNVEKQEGGWWRGDYGGKKQLWFPSNYVEEMVNPVALEPEREHLDENSPLGDLLRGVLDVPACQIAIRPEGKNNRLFVFSISMASVAHWSLDVAADSQEELQDWVKKIREVAQTADARLTEGKIMERRKKIALELSELVVYCRPVPFDEEKIGTERACYRDMSSFPETKAEKYVNKAKGKKFLQYNRLQLSRIYPKGQRLDSSNYDPLPMWICGSQLVALNFQTPDKPMQMNQALFMTGRHCGYVLQPSTMRDEAFDPFDKSSLRGLEPCAISIEVLGARHLPKNGRGIVCPFVEIEVAGAEYDSTKQKTEFVVDNGLNPVWPAKPFHFQISNPEFAFLRFVVYEEDMFSDQNFLAQATFPVKGLKTGYRAVPLKNNYSEDLELASLLIKIDIFPAKENGDLSPFSGTSLRERGSDASGQLFHGRAREGSFESRYQQPFEDFRISQEHLADHFDSRERRAPRRTRVNGDNRL
